For part of these data: Weaker means in comparison with the reference protein, sequence or condition of that experiment. For part of these data: Construct, isoform or probe ends are uncertain for at least one entry. For part of these data: At least one verdict was read from the data and is not stated in words by the source.
Columns and labels:
[1] = tested on: RNA polymerase II (12-subunit) (Sus scrofa (thymus)); assay: mass photometry; conditions: 50 mM KCl, 4 mM Mg2+, native protein
TFIIF (RAP74ΔC) = assay: EMSA; conditions: 0-60 nM TFIIF, 1 mM Mg2+, reduced vs wild type; EMSA: 20 mM HEPES-NaOH pH 7.25, 150 mM NaCl, 1 mM MgCl2, 5% glycerol, 40 ug/ml BSA, 1 mM DTT, 5 nM RNA, 30 C (gel 4 C); recombinant protein; protein details: His10-Arg7-SUMO tag, 3C cleaved; label: 3' ATTO 488 (anisotropy, EMSA)

Sequence | binding result [1] | binding result (TFIIF (RAP74ΔC)) | binding result ([1]; label: 3' ATTO 488 (anisotropy, EMSA))
GAGGCAGGAGAAUGGCGUGAACCCGGGAGGUGGACGAGAUCGCUCCAGCCUGGGUGACAGAGCGAGACUCUGUCUC [minimal Alu-RA] | binds |  | 
GGCCGGGCGCGGUGGCUCACGCCUGUAAUCCCAGCACUUUGGGAGGCCGAGGCGGGCGGAUCACAAGGUCAGGAGAUCGAGACCAUCCUGGCUAACACAGUGAAACCCCGUCUCUACU [Alu-LA (scAlu)] |  | binds more weakly | binds

Reference: publication PMC11996674
